Data as given in PMC11263205.
Positions count from the first letter of the chain named. Read-outs that look alike come from different tables or passages of the source. Results are given in words; binding and its absence hold for the method and conditions named. Binding seen in cells or lysates may run through a third protein. A yes stands for co-enrichment or nearness to the bait. Other partners may have been found. For some assays here: A no says only that the protein was not detected with the bait. Where a sequence is shown, tags or fusion partners need not be part of it.

Amino acid sequences for entries named in this document (tags omitted).
UniProt O94901: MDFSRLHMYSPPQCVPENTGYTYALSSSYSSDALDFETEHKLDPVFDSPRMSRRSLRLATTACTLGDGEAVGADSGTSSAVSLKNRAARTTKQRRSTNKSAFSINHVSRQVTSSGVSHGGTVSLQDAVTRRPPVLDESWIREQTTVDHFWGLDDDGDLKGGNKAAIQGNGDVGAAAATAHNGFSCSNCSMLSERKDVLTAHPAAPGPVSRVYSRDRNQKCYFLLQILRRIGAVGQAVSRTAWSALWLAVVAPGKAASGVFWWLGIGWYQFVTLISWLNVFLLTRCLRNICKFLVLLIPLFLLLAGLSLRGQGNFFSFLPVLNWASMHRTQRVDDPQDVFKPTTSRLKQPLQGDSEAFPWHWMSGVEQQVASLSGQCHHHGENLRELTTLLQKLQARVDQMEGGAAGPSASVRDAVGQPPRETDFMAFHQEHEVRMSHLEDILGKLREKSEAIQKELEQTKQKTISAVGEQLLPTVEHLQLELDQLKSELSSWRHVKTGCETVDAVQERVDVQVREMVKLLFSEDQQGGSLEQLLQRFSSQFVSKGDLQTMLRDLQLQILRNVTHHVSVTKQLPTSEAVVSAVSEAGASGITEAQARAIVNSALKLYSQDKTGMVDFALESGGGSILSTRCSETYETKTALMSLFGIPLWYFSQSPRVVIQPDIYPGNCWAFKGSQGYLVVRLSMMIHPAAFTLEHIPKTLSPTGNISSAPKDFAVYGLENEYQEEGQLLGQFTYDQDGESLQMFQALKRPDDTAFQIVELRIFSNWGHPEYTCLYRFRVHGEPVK
UniProt O75530: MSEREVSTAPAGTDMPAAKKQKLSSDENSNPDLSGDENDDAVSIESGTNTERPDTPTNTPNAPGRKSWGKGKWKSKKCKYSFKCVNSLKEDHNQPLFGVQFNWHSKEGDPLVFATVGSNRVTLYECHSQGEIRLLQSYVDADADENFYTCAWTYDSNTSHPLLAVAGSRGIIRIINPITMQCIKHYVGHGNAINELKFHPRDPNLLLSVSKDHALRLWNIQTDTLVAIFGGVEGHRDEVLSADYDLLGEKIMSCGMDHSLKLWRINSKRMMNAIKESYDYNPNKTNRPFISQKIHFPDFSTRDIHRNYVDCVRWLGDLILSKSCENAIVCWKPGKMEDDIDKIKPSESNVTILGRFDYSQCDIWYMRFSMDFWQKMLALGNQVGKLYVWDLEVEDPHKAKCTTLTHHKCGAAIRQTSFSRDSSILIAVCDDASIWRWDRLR
UniProt Q92636: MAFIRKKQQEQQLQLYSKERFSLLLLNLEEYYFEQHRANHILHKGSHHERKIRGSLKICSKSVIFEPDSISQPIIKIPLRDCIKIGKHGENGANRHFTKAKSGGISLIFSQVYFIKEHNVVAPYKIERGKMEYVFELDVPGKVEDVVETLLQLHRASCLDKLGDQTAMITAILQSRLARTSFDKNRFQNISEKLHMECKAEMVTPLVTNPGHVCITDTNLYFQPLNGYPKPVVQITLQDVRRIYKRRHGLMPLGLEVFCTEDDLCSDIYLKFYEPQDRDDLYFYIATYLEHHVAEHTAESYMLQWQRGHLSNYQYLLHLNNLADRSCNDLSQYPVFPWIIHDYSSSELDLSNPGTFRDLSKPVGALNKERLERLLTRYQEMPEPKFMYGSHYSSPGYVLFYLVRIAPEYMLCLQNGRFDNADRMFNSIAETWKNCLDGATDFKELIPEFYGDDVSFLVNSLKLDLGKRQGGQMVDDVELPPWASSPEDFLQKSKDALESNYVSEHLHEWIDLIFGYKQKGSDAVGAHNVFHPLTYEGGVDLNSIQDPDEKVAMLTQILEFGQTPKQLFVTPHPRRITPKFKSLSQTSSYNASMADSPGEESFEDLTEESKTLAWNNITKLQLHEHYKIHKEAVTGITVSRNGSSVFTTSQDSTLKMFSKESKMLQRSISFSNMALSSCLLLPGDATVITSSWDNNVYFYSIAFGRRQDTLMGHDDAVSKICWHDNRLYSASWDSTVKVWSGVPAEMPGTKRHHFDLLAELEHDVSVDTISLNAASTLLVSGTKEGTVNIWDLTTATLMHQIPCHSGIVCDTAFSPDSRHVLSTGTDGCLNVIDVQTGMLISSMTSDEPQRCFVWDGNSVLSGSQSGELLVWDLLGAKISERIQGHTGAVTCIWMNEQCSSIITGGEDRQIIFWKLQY

Assays:
[1] = biological target: T1, nSMase2-APEX2 fusion protein (neutral sphingomyelinase 2 C-terminally fused to EGFP-FLAG-APEX2) (human) (UniProt Q9NY59); test: proximity labelling; APEX2 fused to nSMase2 (or H639A) in living Jurkat cells; 1 mM biotin-phenol 30 min at 37°C, 1 mM H2O2 for the final 1 min; 100 ng/mL TNFα for 1, 2 or 5 min or none; streptavidin magnetic beads after removal of excess biotin-phenol, label-free LC-MS/MS; enrichment of TNFα-treated against untreated cells
T1 sequence: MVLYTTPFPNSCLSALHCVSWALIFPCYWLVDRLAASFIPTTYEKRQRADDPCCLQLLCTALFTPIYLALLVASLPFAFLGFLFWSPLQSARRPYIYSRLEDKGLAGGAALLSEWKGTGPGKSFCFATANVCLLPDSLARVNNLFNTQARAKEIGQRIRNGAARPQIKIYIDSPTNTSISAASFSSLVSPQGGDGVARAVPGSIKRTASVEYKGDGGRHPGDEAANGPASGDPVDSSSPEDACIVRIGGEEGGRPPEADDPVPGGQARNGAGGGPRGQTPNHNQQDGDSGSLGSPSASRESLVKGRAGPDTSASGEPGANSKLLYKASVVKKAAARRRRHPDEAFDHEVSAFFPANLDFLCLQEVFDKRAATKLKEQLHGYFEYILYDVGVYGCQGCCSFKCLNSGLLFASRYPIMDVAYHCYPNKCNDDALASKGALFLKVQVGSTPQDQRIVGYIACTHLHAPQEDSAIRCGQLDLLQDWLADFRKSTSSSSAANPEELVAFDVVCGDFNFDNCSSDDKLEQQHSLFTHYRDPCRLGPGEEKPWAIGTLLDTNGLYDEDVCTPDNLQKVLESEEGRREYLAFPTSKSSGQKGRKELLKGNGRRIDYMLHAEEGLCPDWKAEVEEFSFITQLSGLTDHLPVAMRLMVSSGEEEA

[2] = biological target: T2, H639A-APEX2 (enzymatically inactive mutant of nSMase2 C-terminally fused to EGFP-FLAG-APEX2) (human) (UniProt Q9NY59); test: as above
T2 sequence: T1 sequence with H639A

[3] = biological target: T2, H639A-APEX2 (enzymatically inactive mutant of nSMase2 C-terminally fused to EGFP-FLAG-APEX2) (human); test: proximity labelling; as a1, H639A-APEX2 cells at 2 min (and 5 min) of 100 ng/mL TNFα, where the paper reports that the enrichment is lost
[4] = biological target: T1, nSMase2-APEX2 fusion protein (neutral sphingomyelinase 2 C-terminally fused to EGFP-FLAG-APEX2) (human); test: proximity labelling; APEX2 fused to nSMase2 (or H639A) in living Jurkat cells; 1 mM biotin-phenol 30 min at 37°C, 1 mM H2O2 for the final 1 min; 100 ng/mL TNFα for 1, 2 or 5 min or none; streptavidin magnetic beads after removal of excess biotin-phenol, label-free LC-MS/MS; enrichment of TNFα-treated against untreated cells; remark: listed apart in the source

Molecule: PPP3CA, subunit of PP2B (Ca2+/calmodulin-dependent serine/threonine phosphatase calcineurin) (from UniProt Q08209 1-521)
- binding [1]: binds

Molecule: SUN1 (from UniProt O94901 1-785)
- binding [1]: binds

Molecule: EED (polycomb protein embryonic ectoderm development) (from UniProt O75530 1-441)
- binding [1]: binds
- binding [2]: binds
- binding [3]: no binding (only after 2 min of TNFα stimulation)

Molecule: FAN (factor associated with nSMase2 activation) (from UniProt Q92636 1-917)
- binding [1]: binds
- binding [2]: binds

B1: STOM (protein, UniProt P27105 1-288)
chain: MAEKRHTRDSEAQRLPDSFKDSPSKGLGPCGWILVAFSFLFTVITFPISIWMCIKIIKEYERAIIFRLGRILQGGAKGPGLFFILPCTDSFIKVDMRTISFDIPPQEILTKDSVTISVDGVVYYRVQNATLAVANITNADSATRLLAQTTLRNVLGTKNLSQILSDREEIAHNMQSTLDDATDAWGIKVERVEIKDVKLPVQLQRAMAAEAEASREARAKVIAAEGEMNASRALKEASMVITESPAALQLRYLQTLTTIAAEKNSTIVFPLPIDMLQGIIGAKHSHLG
- binding [4]: binds
